In PMC7515710:
These are yes or no findings as the source states them, for the method shown. Some entries that bind do so weakly or less than the wild type.

Target: T1, Mmp-RpoD (subunit D of the archaeal RNA polymerase of M. maripaludis) (Methanococcus maripaludis S2 (endogenous in M. maripaludis S2)) (UniProt Q6LXM8)
T1 sequence: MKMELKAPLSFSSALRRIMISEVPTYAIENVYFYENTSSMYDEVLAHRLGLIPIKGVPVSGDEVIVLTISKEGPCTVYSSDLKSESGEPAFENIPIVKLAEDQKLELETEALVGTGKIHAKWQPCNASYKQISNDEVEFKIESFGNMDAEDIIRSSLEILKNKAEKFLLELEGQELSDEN
Test: SEC; S2 cell extract (lysis buffer 50 mM Tris-HCl pH 7.5, 150 mM NaCl, 0.05% NP-40, 10% glycerol), with or without RNase A treatment at 37°C for 30 min, 500 μg fractionated on Superdex 200 10/300 GL; fractions western blotted

- binding: binds
B1: Mmp-aCPSF1 (archaeal ribonuclease aCPSF1 of Methanococcus maripaludis) (enzyme, UniProt Q6LZD5 1-635)
chain: MSAEDILNEIKAAVINKAPGNAVITDVEFEGSEVVIYAKNPELFSNNLIKEFARDFRKRLAIRPDPSVLVEPDIAKDKILKIVPEDAEITNCIFDANTGEVIIESKKPGLVIGKEGSTLEDIKKAIQWAPKPVRTPPIPSDTIKAIRATMYRERADVKDILRRIGRRIHRDVRLRDDSWVRTSFLGGSREVGRTCLYHQTPESRILVDCGINIAVEDEKAFPHFDAPEFSIEEIDAVVVTHAHLDHCGFIPGLFRYGYDGPVYCTKPTRDLMTLLQKDYVDITEKEGKNVPYSSKDIKNCIKHTIPLDYGVTTDIAPAIKLTMHNAGHILGSAIAHCHVGDGLYNVAYTGDIKFEASRLLEPAVCQFPRLETLIIESTYGGYDDVLPERDETEKEFLRVIAETIARKGKAIIPVFGIGRAQELMLVLEEGYNQGIFNAPVYLDGMIWEATAIHTAYPEYLSKNMRNRIFHEGDNPFLSEVFKKVKNTNDRRNIMDSDEPGIILTTSGMLSGGPSVEYFKNLADDEKNSIVFVGYQSEGTLGRKIQKGFKEIPLMGKNGRSKAVKVNLSVHTLEGFSGHSDRKQLIKYLRKLKPIPDRILTVHGEVSKCIDLASTAYKLFKKETKAPMNLDSIRLR
